Results taken from publication PMC2821400.
Substitutions are numbered along the chain they refer to. No constants are given. Whether binding was seen depends on the method and setting. Binding seen in cells or lysates may run through a third protein. Some results given as binding are weak or reduced against the parent protein; the word gives no strength. Tags and fused reporters may be left off the sequences shown.

By UniProt entry, the sequences of proteins in these tests, tags left out.
UniProt Q14247: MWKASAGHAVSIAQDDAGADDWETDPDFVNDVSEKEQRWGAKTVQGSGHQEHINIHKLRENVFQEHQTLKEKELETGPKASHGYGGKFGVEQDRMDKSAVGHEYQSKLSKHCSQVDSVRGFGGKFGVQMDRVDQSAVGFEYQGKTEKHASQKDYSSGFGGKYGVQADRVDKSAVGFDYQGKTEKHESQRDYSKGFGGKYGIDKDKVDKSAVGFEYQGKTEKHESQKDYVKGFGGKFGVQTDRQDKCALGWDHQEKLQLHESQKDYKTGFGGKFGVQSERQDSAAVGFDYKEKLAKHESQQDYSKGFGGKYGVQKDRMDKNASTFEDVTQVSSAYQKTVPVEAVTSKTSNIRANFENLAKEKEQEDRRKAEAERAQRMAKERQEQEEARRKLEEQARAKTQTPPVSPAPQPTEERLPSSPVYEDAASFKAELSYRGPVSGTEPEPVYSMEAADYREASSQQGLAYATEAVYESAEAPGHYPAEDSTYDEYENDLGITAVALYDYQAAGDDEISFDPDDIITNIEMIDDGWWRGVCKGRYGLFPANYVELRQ

Key:
[1] = target: T1, recombinant unphosphorylated GST-L-plastin (human) (UniProt P13796); assay: pull-down; GST-L-plastin (20 µg) immobilised on glutathione-sepharose 4B beads, incubated overnight at 4°C with untreated MCF-7 cell extracts (200 µg); washed with cold PBS; immunoblot for cortactin; only the target purified
T1 sequence: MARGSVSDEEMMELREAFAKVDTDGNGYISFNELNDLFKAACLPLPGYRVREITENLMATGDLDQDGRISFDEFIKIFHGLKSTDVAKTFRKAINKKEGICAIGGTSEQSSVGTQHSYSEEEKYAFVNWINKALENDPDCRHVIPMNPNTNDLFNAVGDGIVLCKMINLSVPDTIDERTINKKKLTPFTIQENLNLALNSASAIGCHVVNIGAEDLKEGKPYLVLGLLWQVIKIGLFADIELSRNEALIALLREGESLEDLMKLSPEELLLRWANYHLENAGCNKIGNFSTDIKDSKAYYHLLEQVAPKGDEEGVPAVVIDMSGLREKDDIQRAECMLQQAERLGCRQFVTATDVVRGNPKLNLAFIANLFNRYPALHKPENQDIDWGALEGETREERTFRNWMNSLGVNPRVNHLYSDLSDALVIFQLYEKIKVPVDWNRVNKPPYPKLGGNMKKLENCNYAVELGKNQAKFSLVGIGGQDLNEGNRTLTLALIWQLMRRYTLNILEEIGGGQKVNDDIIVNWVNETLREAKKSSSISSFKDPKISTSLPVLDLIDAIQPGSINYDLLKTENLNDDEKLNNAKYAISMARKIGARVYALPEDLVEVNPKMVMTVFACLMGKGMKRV

[2] = target: T2, WT GFP-L-plastin, expressed in MCF-7 cells (human) (UniProt P13796); assay: co-IP; GFP-nanotrap beads, lysate of PMA-treated MCF-7 cells expressing GFP-L-plastin; 10 mM Tris-HCl pH 7.5, 150 mM NaCl, 0.5 mM EDTA, 30 minutes at 4°C; immunoblot for cortactin
T2 sequence: T1 sequence

[3] = target: T3, phosphorylation-defective S5/A GFP-L-plastin, expressed in MCF-7 cells (human) (UniProt P13796); assay: co-IP; data not shown: GFP-nanotrap co-immunoprecipitation from MCF-7 cells with S5/A GFP-L-plastin, and with WT GFP-L-plastin from cells not treated with PMA; seen in some experiments
T3 sequence: T1 sequence with S5A

[4] = target: T2, WT GFP-L-plastin, expressed in MCF-7 cells (human); assay: as above

binding [1]: binds | binding [2]: binds | binding [3]: binds | binding [4]: binds
Substance: cortactin (from UniProt Q14247 1-550)
